{
  "source": "paper doi:10.64898/2025.12.17.695032",
  "biological_target": "T1, FLAG epitope-tagged SCUBE2 (UniProt Q9NQ36)",
  "T1 sequence": "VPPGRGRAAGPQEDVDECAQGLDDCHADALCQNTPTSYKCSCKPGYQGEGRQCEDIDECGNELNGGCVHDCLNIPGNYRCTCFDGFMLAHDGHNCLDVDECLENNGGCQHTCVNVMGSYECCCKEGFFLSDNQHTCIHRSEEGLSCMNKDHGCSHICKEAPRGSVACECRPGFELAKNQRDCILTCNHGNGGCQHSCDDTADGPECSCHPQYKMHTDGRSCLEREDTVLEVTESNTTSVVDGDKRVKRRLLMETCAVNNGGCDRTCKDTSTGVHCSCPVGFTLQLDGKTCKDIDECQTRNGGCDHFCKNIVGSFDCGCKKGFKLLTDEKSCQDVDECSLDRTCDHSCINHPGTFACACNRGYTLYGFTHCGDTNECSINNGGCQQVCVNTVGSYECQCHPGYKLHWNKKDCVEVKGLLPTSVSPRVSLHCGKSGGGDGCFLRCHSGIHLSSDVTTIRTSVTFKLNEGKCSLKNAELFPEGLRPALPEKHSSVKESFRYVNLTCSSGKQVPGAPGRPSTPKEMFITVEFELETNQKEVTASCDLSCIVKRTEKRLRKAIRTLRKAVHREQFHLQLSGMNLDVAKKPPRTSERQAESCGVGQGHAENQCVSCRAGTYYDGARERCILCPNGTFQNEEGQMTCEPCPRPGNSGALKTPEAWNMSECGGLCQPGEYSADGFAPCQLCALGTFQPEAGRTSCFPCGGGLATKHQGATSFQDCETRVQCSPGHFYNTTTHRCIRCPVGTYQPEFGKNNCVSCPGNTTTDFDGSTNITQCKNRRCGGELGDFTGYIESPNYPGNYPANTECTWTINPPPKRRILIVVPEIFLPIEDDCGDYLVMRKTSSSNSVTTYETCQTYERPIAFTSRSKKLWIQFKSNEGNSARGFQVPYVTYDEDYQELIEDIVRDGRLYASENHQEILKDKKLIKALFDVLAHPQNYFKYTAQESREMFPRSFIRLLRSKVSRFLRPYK",
  "assay": "co-IP",
  "note": "These are yes or no findings as the source states them, for the method shown. Binding seen in cells or lysates may run through a third protein. Some binding calls cover weakened binding; strength is not graded here. Sequences can lack the tags named with a protein.",
  "data": [
    {"substance": "HA-tagged PDGFRβ (from UniProt P09619 33-1106) (receptor)", "values": [
      {"measurement": "binding", "value": "binds"}
    ]}
  ]
}
